This note sets out measurements from the supplement of paper PMC6289059.

SMILES strings stand for the structures. This is one part of the list. Single values are uncertain, as repeats are few or missing.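 Hepatocyte-like cells derived from human stem cells with CRISPR-disrupted DGUOK model liver mtDNA depletion syndrome. Each well's ATP signal was scored against other wells on the same plate, and drugs scoring 3 or above were primary hits.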

The subject of this test is DGUOK Δ14/Δ5 iPSC-derived hepatocyte-like cells (SV20). As to the kind of experiment: ATP level (CellTiter-Glo luminescence) Z score relative to plate distribution, under 2-DG glycolysis block; higher = more cellular ATP (rescue of mitochondrial ATP production). The note with it: 5 µM; treatment time: day 15 to day 20 of differentiation (5 days); 2-deoxy-D-glucose: 20 mM for 24 h before assay.
Turning to `O=C1c2ccccc2C(=O)C1c1ccc(Br)cc1`, the ATP level was inactive: -1.09.
To `Cc1cc2c(s1)Nc1ccccc1N=C2N1CCN(C)CC1` belongs inactive: -0.999.
To `CC1(C)C(O[C@@H]2OC[C@@H](O)[C@H](O)[C@H]2O)CC[C@]23CC24CC[C@]2(C)[C@@H]([C@@]5(C)CC[C@@H](C(C)(C)O)O5)[C@H](O)C[C@@]2(C)C4C[C@@H](O[C@@H]2O[C@H](CO)[C@@H](O)[C@H](O)[C@H]2O)C13` (stereo partly drawn) belongs inactive: 0.38; to `CCOC(=S)SSC(=S)OCC`, inactive: 2.97; to `Cc1c(O)c(=O)n(-c2ccccc2)n1C`, inactive: 0.797.
In the case of `C[C@H]1[C@H](C)CC[C@]2(C(=O)O[C@@H]3O[C@H](CO[C@@H]4O[C@H](CO)[C@@H](O[C@@H]5O[C@H](C)[C@H](O)[C@@H](O)[C@H]5O)[C@H](O)[C@H]4O)[C@@H](O)[C@H](O)[C@H]3O)CC[C@]3(C)C(=CC[C@@H]4[C@@]5(C)C[C@@H](O)[C@H](O)[C@@](C)(CO)[C@@H]5CC[C@]43C)[C@H]12`, the ATP level is inactive: -2.72.
As for `CC(C)OC(=O)C(C)(C)Oc1ccc(C(=O)c2ccc(Cl)cc2)cc1`, the ATP level is inactive: 0.361.
Regarding `C[C@@H]1C[C@H]2[C@@H]3CCC4=CC(=O)C=C[C@]4(C)[C@@]3(Cl)[C@@H](O)C[C@]2(C)[C@@]1(OC(=O)c1ccco1)C(=O)CCl`, the ATP level was inactive: 0.562.
Then `c1coc(CNc2ncnc3[nH]cnc23)c1`, with active: 3.08; and `CCOc1ccc2nc(S(N)(=O)=O)sc2c1`, with inactive: 1.42; and `O=c1oc2cc(O)ccc2s1`, with inactive: 0.258.
Turning to `CC1/C=C/C=C/C=C/C=C/C=C/C=C/C=C/C(OC2O[C@H](C)[C@@H](O)[C@H](N)[C@@H]2O)CC(O)C(C(=O)O)C(O)CC(=O)CC(O)CC(O)CC(O)CC(=O)CCCC(=O)CC(=O)OC1C(C)CC(C)C(O)CC(=O)c1ccc(N)cc1` (stereo partly drawn), the ATP level is inactive: 0.591.
On to `C/C(=C\C(=O)OCCCCCCCCC(=O)O)C[C@@H]1OC[C@H](C[C@@H]2O[C@H]2[C@@H](C)[C@H](C)O)[C@@H](O)[C@H]1O`, for which the ATP level is inactive: -3.45.
Then `N[C@@H](CSCSC[C@H](N)C(=O)O)C(=O)O`, with inactive: -1.8.
Then `CN/C(=N\CCSCc1nc[nH]c1C)NC#N`, with inactive: -5.63.
Then `C=C1c2cccc(O)c2C(O)=C2C(=O)[C@]3(O)C(O)=C(C(N)=O)C(=O)[C@@H](N(C)C)[C@@H]3[C@@H](O)[C@H]12`, with inactive: -5.56; and `O=C(O)c1cc(/N=N/c2ccc(S(=O)(=O)Nc3ccccn3)cc2)ccc1O`, with inactive: 0.583; and `CC1=C(/C=C/C(C)=C/C=C/C(C)=C/CO)C(C)(C)CCC1`, with inactive: 1.78.
Take `COC(=O)c1c(C)cc(OC(=O)c2c(C)cc(O)c(C=O)c2O)c(C)c1O`: the ATP level was inactive: 0.712.
To `O=C(O)c1ccccc1OP(=O)(O)O` belongs inactive: -6.91.
On to `Cc1ncc([N+](=O)[O-])n1CC(C)O` (stereo not drawn), for which the ATP level was inactive: 1.27.
Then `C/C=C(/C(=C/C)c1ccc(O)cc1)c1ccc(O)cc1`, with inactive: 1.52; and `C[C@]12CCC(=O)C=C1[C@@H]1C[C@@H]1[C@H]1[C@@H]3[C@@H]4C[C@@H]4[C@@]4(CCC(=O)O4)[C@@]3(C)CC[C@@H]12`, with inactive: 0.122.
To `CC1(C)S[C@@H]2[C@H](NC(=O)[C@H](N)c3ccccc3)C(=O)N2[C@H]1C(=O)O` belongs inactive: -0.175; to `C=C[C@H]1CN2CC[C@H]1C[C@H]2[C@H](O)c1ccnc2ccc(OC)cc12`, inactive: -10.6.
Then `O=C(/C=C/c1ccccc1)c1ccc(O[C@@H]2O[C@H](CO)[C@@H](O)[C@H](O)[C@H]2O)cc1O`, with inactive: -0.906; and `CC(=O)NCCCCCC(=O)O`, with inactive: -0.557.
On to `O=c1n(CCCN2CCN(c3cccc(Cl)c3)CC2)nc2ccccn12`, for which the ATP level was inactive: -1.43.
To `O=C(O)c1cc(=O)[nH]c(=O)[nH]1` belongs inactive: 1.34; to `CC1/C(=N/O)C[C@@H]2C[C@H]1C2(C)C` (stereo partly drawn), inactive: -0.883.
To `COc1ccc([C@@H](C)C(=O)c2ccc(O)cc2O)cc1` belongs inactive: -2.65; to `CC(C)(C)CC(C)(C)c1cc(Cc2cc(C(C)(C)CC(C)(C)C)cc(-n3nc4ccccc4n3)c2O)c(O)c(-n2nc3ccccc3n2)c1`, inactive: 0.174.
Then `NC(=O)c1cnccn1`, with inactive: 0.212; and `CC(=O)c1ccc[nH]1`, with inactive: 1.27.
For the molecule `CCCn1c(=O)c2[nH]c(C3CCCC3)nc2n(CCC)c1=O`, the ATP level was inactive: -1.44.
To `O=C(CCNNC(=O)c1ccncc1)NCc1ccccc1` belongs inactive: 1.6; to `Cc1nc2ccccn2c(=O)c1CCN1CCC(C(=O)c2ccc(F)cc2)CC1`, inactive: -1.87.
As for `CSc1nc2cc(Cl)c(Oc3cccc(Cl)c3Cl)cc2[nH]1`, the ATP level is inactive: -0.145.
Then `COc1cccc2c1C(=O)c1c(O)c3c(c(O)c1C2=O)C[C@@](O)(C(=O)CO)C[C@@H]3O[C@H]1C[C@H](N)[C@@H](O)[C@H](C)O1`, with active: 3.39; and `COc1ccc2c(c1)CC[C@@H]1[C@@H]2CC[C@]2(C)[C@@H](O)CC[C@@H]12`, with inactive: -1.42.
Then `O[C@H]1[C@H](O)[C@@H](O)[C@H](O)[C@@H](O)[C@H]1O`, with inactive: 1.42; and `CCCN(CCC)CCc1cccc2c1CC(=O)N2`, with inactive: -2.65; and `C=C(C)[C@@H]1CC[C@]2(CO)CC[C@]3(C)[C@H](CC[C@@H]4[C@@]5(C)CC[C@H](O)C(C)(C)[C@@H]5CC[C@]43C)[C@@H]12`, with inactive: 0.0268.
To `C/C=C/c1ccc(OC)cc1` belongs inactive: 2.09.
As to `CC(=O)O[C@H]1C(=O)[C@@]2(C)[C@H]([C@H](OC(=O)c3ccccc3)[C@]3(O)C[C@H](OC(=O)[C@H](O)[C@@H](NC(=O)c4ccccc4)c4ccccc4)C(C)=C1C3(C)C)[C@]1(OC(C)=O)CO[C@@H]1C[C@@H]2O`, the ATP level is inactive: 1.6.
To `O=C(/C=C/c1ccc(O)cc1)c1ccc(O)cc1O` belongs inactive: 0.588.
Then `Cc1c(NC(=O)c2cccnc2)c(=O)n(-c2ccccc2)n1C`, with inactive: -0.964.
For `CS(=O)(=O)OCCCCOS(C)(=O)=O`, the ATP level was inactive: 0.525.
`OCc1c[nH]c2ccccc12`: the ATP level is inactive: -1.35.
To `COc1ccc(-c2coc3c(O)c(O)c(OC)cc3c2=O)cc1` belongs active: 3.09; to `CC(O)Cn1cnc2c1c(=O)n(C)c(=O)n2C` (stereo not drawn), inactive: 0.7.
To `N[C@@H](Cc1c[nH]c2ccccc12)C(=O)O` belongs inactive: -9.06; to `O=C(OOC(=O)c1ccccc1)c1ccccc1`, inactive: 0.935.
To `CCC1(C)OC(=O)N(C)C1=O` (stereo not drawn) belongs inactive: 1.74; to `C=C(C)[C@H]1CC=C(C)CC1`, inactive: -0.195.
As to `NC(=O)CCCCC1CCSS1` (stereo not drawn), the ATP level is inactive: -0.974.
Then `NS(=O)(=O)c1cc2c(cc1C(F)(F)F)NCNS2(=O)=O`, with inactive: 1.01; and `CC(C)CCC[C@@H](C)[C@H]1CC[C@H]2[C@@H]3CC=C4C[C@@H](OC(=O)c5ccccc5)CC[C@]4(C)[C@H]3CC[C@]12C`, with inactive: -1.94.
With `COc1cc(OC)c2c(c1Cl)O[C@@]1(C(=O)CC(=O)C[C@H]1C)C2=O`, the ATP level was inactive: 0.973.
Then `CN1C(=O)CC[C@H]1c1cccnc1`, with inactive: 0.173.
Then `CC(=O)N[C@H]1[C@H]([C@@H](O)[C@@H](O)CO)O[C@@](O)(C(=O)O)C[C@@H]1O`, with inactive: 0.921; and `CC[C@@H]1C(=O)OC[C@@H]1Cc1cncn1C`, with inactive: -1.82; and `NC(=O)NCCC[C@H](N)C(=O)O`, with inactive: 1.51.
Then `O=c1oc2c(O)c(O)cc3c(=O)oc4c(O)c(O)cc1c4c23`, with inactive: -0.405; and `O=C1NS(=O)(=O)c2ccccc21`, with inactive: 1.41.
Regarding `NS(=O)(=O)c1cc2c(cc1Cl)NC(C1CC3C=CC1C3)NS2(=O)=O` (stereo not drawn), the ATP level was inactive: -36.8.
Then `CC(=O)CC(c1ccccc1)c1c(O)c2ccccc2oc1=O` (stereo not drawn), with inactive: -4.66; and `CCN(CC)CC(=O)Nc1c(C)cccc1C`, with inactive: 1.35; and `c1ccc2c(CC3=NCCN3)cccc2c1`, with inactive: 1.07.
To `CC(=O)OCC(=O)[C@@]12OC(C)(C)O[C@@H]1C[C@H]1[C@@H]3C[C@H](F)C4=CC(=O)C=C[C@]4(C)[C@@]3(F)[C@@H](O)C[C@@]12C` belongs inactive: 2.34.
Then `OCc1ccccc1O[C@@H]1O[C@H](CO)[C@@H](O)[C@H](O)[C@H]1O`, with inactive: 0.451; and `C=CC1=C(C(=O)O)N2C(=O)[C@@H](NC(=O)/C(=N\O)c3csc(N)n3)[C@H]2SC1`, with inactive: 0.809; and `Cc1cn([C@H]2C=C[C@@H](CO)O2)c(=O)[nH]c1=O`, with inactive: 0.683.
For the molecule `CC(=O)NS(=O)(=O)c1ccc(N)cc1`, the ATP level was inactive: -9.97.
To `C=C1CC[C@@H]2[C@](C)(CO)[C@H](O)CC[C@@]2(C)[C@@H]1C/C=C1/C(=O)OC[C@H]1O` belongs inactive: -4.04.
Then `Oc1ccc([C@H]2Oc3cc(O)cc(O)c3C[C@H]2O)cc1`, with inactive: -0.886; and `COc1cccc2c1C(=O)c1c(O)c3c(c(O)c1C2=O)C[C@@](O)(C(C)=O)C[C@@H]3O[C@H]1C[C@H](N)[C@H](O)[C@H](C)O1`, with inactive: -20.5; and `Cc1c(-c2cnccn2)ssc1=S`, with inactive: -3.91.
With `C[C@@H]1C[C@H]2[C@@H]3CCC4=CC(=O)C=C[C@]4(C)[C@@]3(F)[C@@H](O)C[C@]2(C)[C@@]1(O)C(=O)COP(=O)(O)O`, the ATP level is inactive: 0.685.
To `CCN(CC)CCNC(C(=O)OCCC(C)C)c1ccccc1` (stereo not drawn) belongs inactive: -0.343; to `C[C@]12CC[C@@H]3c4ccc(OC(=O)c5ccccc5)cc4CC[C@H]3[C@@H]1CC[C@@H]2O`, inactive: 2.03; to `CN1CCN(C(c2ccccc2)c2ccccc2)CC1`, inactive: -3.44.
Then `C[N+](C)(C)CC(=O)O`, with inactive: -24.3.
